According to US5723576A (Development Biotechnological Processes S.N.C., priority 1993, dated 1998):

Test: Boc solid-phase peptide synthesis; Boc-Glu(γBzl)-OCH2-PAM resin; symmetric anhydrides (DCC); PyBop for Boc-Aib-OH
Conditions: whole synthesis, 210 nm, scale 0.5 mmol

PEPTIDE1{I.R.Y.T.D.[dA].[bAla].[bAla].P.E.N.H.N.N.G.D.F.E.E.I.P.[Aib].[Aib].Y.L.E}$$$$V2.0
final HPLC purity: >99%

HELM strings list residues between dots; [ac] is acetyl, [am] amide, other brackets name non-standard units.
